{"sequences": {"note": "Sequences of proteins named here, by UniProt entry; tags and fusion partners are left off. A change or cut given only in a name is not applied to a line headed by its entry.", "UniProt O43432, whole entry": "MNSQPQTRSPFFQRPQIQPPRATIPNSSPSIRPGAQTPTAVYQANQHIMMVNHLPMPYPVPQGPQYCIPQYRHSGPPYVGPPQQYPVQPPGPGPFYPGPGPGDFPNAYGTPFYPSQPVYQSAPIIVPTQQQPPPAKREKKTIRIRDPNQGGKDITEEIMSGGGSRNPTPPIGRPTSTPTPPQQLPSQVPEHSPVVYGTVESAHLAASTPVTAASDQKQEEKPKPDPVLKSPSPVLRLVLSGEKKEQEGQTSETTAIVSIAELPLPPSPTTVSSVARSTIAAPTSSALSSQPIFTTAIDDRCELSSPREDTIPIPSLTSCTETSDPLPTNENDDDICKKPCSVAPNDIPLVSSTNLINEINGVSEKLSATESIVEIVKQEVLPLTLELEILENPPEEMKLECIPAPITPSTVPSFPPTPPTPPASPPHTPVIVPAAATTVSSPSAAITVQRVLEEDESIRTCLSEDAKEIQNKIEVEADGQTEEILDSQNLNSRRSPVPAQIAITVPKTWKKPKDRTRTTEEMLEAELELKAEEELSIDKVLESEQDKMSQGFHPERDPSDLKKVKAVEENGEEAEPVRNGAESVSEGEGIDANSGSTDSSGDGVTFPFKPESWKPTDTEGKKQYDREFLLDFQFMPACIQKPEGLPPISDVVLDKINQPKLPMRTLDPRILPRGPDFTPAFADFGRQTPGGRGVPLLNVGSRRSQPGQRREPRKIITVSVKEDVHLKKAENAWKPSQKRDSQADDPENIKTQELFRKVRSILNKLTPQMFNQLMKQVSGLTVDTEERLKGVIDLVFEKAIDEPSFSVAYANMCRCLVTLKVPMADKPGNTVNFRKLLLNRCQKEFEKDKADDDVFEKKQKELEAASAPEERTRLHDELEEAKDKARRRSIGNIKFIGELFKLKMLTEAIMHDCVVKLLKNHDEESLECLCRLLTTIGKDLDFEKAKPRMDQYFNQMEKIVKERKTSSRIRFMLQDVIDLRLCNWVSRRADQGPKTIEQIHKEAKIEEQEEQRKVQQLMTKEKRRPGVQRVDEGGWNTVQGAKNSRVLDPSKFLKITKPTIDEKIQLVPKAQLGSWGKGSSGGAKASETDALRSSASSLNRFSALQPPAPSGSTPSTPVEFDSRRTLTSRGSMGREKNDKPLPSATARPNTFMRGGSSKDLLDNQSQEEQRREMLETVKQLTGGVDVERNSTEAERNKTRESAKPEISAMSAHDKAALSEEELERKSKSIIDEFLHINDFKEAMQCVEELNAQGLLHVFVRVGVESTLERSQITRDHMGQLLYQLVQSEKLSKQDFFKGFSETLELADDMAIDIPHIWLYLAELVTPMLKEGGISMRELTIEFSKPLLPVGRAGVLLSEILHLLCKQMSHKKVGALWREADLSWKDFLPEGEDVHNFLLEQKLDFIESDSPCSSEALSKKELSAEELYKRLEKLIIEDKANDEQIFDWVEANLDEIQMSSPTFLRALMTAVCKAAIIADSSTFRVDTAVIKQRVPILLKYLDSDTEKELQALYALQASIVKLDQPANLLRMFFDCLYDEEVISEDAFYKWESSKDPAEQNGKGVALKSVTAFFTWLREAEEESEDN", "UniProt P42892": "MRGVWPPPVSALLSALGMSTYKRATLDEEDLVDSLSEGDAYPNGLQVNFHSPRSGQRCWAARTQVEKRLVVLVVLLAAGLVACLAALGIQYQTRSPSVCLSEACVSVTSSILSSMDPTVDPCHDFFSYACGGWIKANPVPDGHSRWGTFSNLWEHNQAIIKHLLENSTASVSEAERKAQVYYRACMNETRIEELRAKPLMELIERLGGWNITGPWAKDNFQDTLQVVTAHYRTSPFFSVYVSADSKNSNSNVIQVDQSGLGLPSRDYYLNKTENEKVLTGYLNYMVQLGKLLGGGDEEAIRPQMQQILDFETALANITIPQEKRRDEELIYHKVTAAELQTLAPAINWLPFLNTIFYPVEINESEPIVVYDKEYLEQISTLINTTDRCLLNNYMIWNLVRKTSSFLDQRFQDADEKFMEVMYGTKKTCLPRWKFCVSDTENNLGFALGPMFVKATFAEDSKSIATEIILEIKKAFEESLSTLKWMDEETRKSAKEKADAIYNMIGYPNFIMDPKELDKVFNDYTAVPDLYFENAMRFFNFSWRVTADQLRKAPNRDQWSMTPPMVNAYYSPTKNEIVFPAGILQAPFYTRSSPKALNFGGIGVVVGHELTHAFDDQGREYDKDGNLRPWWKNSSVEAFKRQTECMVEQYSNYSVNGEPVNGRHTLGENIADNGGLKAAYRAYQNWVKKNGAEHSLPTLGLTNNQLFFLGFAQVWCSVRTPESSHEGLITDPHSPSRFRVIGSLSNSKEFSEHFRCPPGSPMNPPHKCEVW", "UniProt Q8IV48": "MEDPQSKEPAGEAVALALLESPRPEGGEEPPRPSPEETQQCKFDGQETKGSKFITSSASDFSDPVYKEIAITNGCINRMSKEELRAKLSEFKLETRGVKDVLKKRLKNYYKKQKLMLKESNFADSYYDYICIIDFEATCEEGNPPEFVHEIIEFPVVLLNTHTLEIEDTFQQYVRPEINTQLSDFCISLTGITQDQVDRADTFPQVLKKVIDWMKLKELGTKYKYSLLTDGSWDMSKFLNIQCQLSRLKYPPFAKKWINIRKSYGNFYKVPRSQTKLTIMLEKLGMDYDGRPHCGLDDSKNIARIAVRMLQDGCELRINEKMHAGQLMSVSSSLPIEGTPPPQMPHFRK", "UniProt P13804": "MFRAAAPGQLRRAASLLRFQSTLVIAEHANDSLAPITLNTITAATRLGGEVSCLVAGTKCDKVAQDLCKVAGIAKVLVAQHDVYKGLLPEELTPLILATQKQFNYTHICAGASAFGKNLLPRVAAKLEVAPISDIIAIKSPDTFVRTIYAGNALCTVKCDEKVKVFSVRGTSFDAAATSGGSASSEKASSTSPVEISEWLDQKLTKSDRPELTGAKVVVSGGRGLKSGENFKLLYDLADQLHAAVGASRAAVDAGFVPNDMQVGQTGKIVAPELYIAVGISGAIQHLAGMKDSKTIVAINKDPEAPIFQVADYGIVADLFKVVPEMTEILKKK", "UniProt Q96KQ7": "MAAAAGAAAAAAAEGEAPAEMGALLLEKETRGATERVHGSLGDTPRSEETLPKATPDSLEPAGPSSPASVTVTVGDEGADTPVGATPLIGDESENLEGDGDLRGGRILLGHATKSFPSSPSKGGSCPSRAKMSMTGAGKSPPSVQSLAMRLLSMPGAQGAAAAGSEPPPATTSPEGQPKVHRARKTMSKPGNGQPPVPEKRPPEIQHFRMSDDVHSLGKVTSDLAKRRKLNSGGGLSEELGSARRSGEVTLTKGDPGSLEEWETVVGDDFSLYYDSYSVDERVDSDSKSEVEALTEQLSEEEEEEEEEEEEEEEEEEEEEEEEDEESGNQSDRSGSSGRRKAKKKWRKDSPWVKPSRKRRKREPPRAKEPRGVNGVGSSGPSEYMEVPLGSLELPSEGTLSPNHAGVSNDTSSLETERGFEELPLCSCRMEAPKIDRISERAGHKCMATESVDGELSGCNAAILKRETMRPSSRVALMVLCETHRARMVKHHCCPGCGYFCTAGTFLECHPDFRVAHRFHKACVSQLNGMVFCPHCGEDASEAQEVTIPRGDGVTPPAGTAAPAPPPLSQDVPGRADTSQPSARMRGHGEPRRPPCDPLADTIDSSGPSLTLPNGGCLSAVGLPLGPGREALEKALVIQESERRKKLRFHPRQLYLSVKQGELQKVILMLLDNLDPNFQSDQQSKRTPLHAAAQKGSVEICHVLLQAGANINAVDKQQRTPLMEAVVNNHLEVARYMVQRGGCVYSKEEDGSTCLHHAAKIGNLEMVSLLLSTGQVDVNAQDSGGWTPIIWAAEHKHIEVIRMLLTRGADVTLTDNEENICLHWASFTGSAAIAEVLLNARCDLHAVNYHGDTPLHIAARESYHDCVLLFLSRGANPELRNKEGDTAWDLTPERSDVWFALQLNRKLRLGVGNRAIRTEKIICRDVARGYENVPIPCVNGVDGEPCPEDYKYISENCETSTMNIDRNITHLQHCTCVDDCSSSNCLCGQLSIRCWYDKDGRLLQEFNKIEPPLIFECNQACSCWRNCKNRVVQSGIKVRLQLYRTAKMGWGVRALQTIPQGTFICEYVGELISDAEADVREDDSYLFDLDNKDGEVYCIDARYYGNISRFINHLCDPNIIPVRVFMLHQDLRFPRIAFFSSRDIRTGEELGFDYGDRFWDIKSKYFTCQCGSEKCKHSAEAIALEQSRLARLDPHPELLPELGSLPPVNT", "UniProt Q9H9T3": "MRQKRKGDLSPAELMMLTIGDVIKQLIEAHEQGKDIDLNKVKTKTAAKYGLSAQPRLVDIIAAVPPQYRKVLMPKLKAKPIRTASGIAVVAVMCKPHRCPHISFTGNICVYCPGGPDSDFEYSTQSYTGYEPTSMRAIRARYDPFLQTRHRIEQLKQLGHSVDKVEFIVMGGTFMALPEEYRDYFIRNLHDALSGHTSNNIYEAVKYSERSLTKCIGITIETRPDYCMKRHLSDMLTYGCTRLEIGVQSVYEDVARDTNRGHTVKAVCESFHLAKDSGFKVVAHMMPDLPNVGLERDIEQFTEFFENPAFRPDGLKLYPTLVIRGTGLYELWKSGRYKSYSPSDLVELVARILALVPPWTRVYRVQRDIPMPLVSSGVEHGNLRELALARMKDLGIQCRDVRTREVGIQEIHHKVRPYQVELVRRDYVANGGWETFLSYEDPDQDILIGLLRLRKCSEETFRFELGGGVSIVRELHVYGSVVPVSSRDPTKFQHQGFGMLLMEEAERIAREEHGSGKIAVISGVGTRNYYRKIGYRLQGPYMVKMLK", "UniProt Q14126": "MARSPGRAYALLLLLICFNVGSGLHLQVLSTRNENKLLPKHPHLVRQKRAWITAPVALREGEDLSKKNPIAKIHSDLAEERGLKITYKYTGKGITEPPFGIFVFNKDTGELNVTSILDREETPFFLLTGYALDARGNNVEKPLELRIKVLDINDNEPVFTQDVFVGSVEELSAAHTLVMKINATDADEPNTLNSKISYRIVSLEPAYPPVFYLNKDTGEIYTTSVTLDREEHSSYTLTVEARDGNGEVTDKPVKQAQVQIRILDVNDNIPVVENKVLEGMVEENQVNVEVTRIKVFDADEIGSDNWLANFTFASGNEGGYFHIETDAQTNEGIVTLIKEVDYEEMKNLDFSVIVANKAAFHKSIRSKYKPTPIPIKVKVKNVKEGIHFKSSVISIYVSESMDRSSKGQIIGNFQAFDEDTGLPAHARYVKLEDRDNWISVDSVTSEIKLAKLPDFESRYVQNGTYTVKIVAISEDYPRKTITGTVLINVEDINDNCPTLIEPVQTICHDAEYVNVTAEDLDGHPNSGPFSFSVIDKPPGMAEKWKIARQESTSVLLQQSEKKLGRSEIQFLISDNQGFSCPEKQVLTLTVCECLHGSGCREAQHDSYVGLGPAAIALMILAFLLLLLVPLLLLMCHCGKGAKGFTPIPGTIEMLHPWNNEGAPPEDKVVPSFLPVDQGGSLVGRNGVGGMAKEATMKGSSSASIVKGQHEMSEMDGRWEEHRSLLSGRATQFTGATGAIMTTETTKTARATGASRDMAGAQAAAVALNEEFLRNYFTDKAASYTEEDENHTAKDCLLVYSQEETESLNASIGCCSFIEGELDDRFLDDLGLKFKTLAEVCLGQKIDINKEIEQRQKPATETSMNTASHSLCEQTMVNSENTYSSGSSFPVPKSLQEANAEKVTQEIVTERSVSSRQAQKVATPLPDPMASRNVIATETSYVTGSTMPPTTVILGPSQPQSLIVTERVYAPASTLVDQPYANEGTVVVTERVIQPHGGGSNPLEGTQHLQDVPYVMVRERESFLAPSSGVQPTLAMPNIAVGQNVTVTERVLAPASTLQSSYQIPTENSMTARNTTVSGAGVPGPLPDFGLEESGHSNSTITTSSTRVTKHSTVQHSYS", "UniProt Q16134": "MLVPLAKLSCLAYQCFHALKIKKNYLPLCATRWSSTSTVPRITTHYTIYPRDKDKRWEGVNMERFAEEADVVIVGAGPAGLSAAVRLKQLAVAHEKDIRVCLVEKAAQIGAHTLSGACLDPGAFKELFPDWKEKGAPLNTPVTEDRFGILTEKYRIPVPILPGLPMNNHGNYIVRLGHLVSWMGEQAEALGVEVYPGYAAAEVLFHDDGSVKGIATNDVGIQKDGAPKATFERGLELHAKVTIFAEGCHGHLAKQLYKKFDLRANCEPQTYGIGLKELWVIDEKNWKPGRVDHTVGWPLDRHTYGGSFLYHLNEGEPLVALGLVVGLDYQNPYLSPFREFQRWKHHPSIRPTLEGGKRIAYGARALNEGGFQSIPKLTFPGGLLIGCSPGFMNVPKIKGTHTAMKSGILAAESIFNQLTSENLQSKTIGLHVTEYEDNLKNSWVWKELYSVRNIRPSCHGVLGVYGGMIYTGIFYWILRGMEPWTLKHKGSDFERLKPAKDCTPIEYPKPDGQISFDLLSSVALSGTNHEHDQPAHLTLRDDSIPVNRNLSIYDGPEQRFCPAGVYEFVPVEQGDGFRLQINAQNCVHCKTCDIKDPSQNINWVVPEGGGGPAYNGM"}, "source": "the supplement of paper PMC7666118", "note": "The other results are listed elsewhere or left out.", "data": [{"compound": "COc1ccc(Cn2ccc3cc(C)c(C(=O)NO)cc32)cc1", "experiment": "dose-dependent thermal stabilisation call (2D-TPP, DLPTP, 10% FDR) (binary (1 = stabilised)); higher = stabilised by the compound", "details": "system: HL-60 intact cells; concentration range 0.04-10 µM", "experimental": "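2D thermal proteome profiling in intact HL-60 cells treated with BRD-3811 (0, 0.04, 0.29, 2, 10 uM) for 90 min at 37 C, then heated 3 min at one of 12 temperatures (42-63.9 C). Soluble protein was quantified by TMT10 MS. The value is the DLPTP call of the paper: dose-dependent thermal stabilisation over all temperatures at 10% FDR (F-test of a dose-response against a flat model); one experiment, one call per tested protein.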", "values": [{"target": "EIF4G3 (UniProt O43432)", "dose-dependent thermal stabilisation call": "inactive: 0"}, {"target": "ECE1 (UniProt P42892)", "dose-dependent thermal stabilisation call": "inactive: 0"}, {"target": "EXOSC7 (UniProt Q15024)", "dose-dependent thermal stabilisation call": "inactive: 0"}, {"target": "EIF4A1 (UniProt P60842)", "dose-dependent thermal stabilisation call": "inactive: 0"}, {"target": "ERCC8 (UniProt Q13216)", "dose-dependent thermal stabilisation call": "inactive: 0"}, {"target": "EXOC8 (UniProt Q8IYI6)", "dose-dependent thermal stabilisation call": "inactive: 0"}, {"target": "EEF1A1 (UniProt P68104)", "dose-dependent thermal stabilisation call": "inactive: 0"}, {"target": "EAPP (UniProt Q56P03)", "dose-dependent thermal stabilisation call": "inactive: 0"}, {"target": "ERCC6", "dose-dependent thermal stabilisation call": "inactive: 0"}, {"target": "EP400 (UniProt Q96L91)", "dose-dependent thermal stabilisation call": "inactive: 0"}, {"target": "ERI1 (UniProt Q8IV48)", "dose-dependent thermal stabilisation call": "inactive: 0"}, {"target": "EIF4A3 (UniProt P38919)", "dose-dependent thermal stabilisation call": "inactive: 0"}, {"target": "ETFA (UniProt P13804)", "dose-dependent thermal stabilisation call": "inactive: 0"}, {"target": "EIF3G (UniProt O75821)", "dose-dependent thermal stabilisation call": "inactive: 0"}, {"target": "EIF3H (UniProt O15372)", "dose-dependent thermal stabilisation call": "inactive: 0"}, {"target": "DSG1 (UniProt Q02413)", "dose-dependent thermal stabilisation call": "inactive: 0"}, {"target": "FAM175B (UniProt Q15018)", "dose-dependent thermal stabilisation call": "inactive: 0"}, {"target": "EIF2S1 (UniProt P05198)", "dose-dependent thermal stabilisation call": "inactive: 0"}, {"target": "DSCC1 (UniProt Q9BVC3)", "dose-dependent thermal stabilisation call": "inactive: 0"}, {"target": "EIF3F (UniProt O00303)", "dose-dependent thermal stabilisation call": "inactive: 0"}, {"target": "DPYSL2 (UniProt Q16555)", "dose-dependent thermal stabilisation call": "inactive: 0"}, {"target": "EIF3I (UniProt Q13347)", "dose-dependent thermal stabilisation call": "inactive: 0"}, {"target": "EXOC5 (UniProt O00471)", "dose-dependent thermal stabilisation call": "inactive: 0"}, {"target": "ERCC5 (UniProt P28715)", "dose-dependent thermal stabilisation call": "inactive: 0"}, {"target": "EHMT2 (UniProt Q96KQ7)", "dose-dependent thermal stabilisation call": "inactive: 0"}, {"target": "ELP3 (UniProt Q9H9T3)", "dose-dependent thermal stabilisation call": "inactive: 0"}, {"target": "ENDOG (UniProt Q14249)", "dose-dependent thermal stabilisation call": "inactive: 0"}, {"target": "DSG2 (UniProt Q14126)", "dose-dependent thermal stabilisation call": "inactive: 0"}, {"target": "EXOSC5 (UniProt Q9NQT4)", "dose-dependent thermal stabilisation call": "inactive: 0"}, {"target": "ENTPD7 (UniProt Q9NQZ7)", "dose-dependent thermal stabilisation call": "inactive: 0"}, {"target": "EIF2B5 (UniProt Q13144)", "dose-dependent thermal stabilisation call": "inactive: 0"}, {"target": "EDD1 (UniProt O95071)", "dose-dependent thermal stabilisation call": "inactive: 0"}, {"target": "EIF4E2 (UniProt O60573)", "dose-dependent thermal stabilisation call": "inactive: 0"}, {"target": "ETFDH (UniProt Q16134)", "dose-dependent thermal stabilisation call": "inactive: 0"}, {"target": "ESF1 (UniProt Q9H501)", "dose-dependent thermal stabilisation call": "inactive: 0"}, {"target": "EMB (UniProt Q6PCB8)", "dose-dependent thermal stabilisation call": "inactive: 0"}]}]}
